Source: paper PMC5095800, “A standardized production pipeline for high profile targets from Mycobacterium tuberculosis” (Proteomics. Clinical Applications, 2016)
Results are given in words; binding and its absence hold for the method and conditions named.

The chains behind the UniProt entries cited, without tags or fusion partners.
UniProt P9WK17: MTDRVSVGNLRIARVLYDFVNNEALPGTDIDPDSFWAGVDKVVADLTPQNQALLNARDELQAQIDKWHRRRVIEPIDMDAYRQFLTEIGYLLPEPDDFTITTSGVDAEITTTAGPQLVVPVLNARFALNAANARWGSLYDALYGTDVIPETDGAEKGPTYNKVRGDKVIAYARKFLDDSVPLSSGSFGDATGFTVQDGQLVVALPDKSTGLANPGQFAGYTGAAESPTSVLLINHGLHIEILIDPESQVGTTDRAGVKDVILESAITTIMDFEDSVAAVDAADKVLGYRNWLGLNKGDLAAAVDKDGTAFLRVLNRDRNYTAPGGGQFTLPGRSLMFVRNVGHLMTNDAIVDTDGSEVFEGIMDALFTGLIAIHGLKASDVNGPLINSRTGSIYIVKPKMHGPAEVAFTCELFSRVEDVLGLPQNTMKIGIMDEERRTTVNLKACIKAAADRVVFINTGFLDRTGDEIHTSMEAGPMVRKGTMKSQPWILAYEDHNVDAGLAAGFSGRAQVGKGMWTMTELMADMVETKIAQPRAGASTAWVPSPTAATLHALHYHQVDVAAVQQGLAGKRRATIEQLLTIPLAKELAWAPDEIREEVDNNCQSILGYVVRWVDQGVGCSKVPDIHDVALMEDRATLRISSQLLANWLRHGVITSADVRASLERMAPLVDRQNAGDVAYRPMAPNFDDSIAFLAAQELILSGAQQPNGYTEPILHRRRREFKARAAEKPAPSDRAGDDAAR

Biological target: Malate synthase G (GlcB) (Mycobacterium tuberculosis H37Rv) (UniProt P9WK17)
Assay: SEC; both purified

Substance: Malate synthase G (GlcB) (from UniProt P9WK17 1-741) (enzyme)
- binding: no binding
